# Drug screen on melanoma cell lines: cell count

Drugs:
GW2580: COc1ccc(COc2ccc(Cc3cnc(N)nc3N)cc2OC)cc1 at 1 µM
dorsomorphin: c1cc(-c2cnn3cc(-c4ccc(OCCN5CCCCC5)cc4)cnc23)ccn1 at 0.4 µM
GW0742: Cc1cc(SCc2sc(-c3ccc(C(F)(F)F)c(F)c3)nc2C)ccc1OCC(=O)O at 2 µM
PF-04217903: OCCn1cc(-c2cnc3nnn(Cc4ccc5ncccc5c4)c3n2)cn1 at 1 µM
OSU-03012: NCC(=O)Nc1ccc(-n2nc(C(F)(F)F)cc2-c2ccc3c(ccc4ccccc43)c2)cc1 at 1 µM
BMS-536924: Cc1cc(N2CCOCC2)cc2[nH]c(-c3c(NC[C@@H](O)c4cccc(Cl)c4)cc[nH]c3=O)nc12 at 0.2 µM
ENMD-2076: Cc1cc(Nc2cc(N3CCN(C)CC3)nc(/C=C/c3ccccc3)n2)n[nH]1 at 0.04 µM
veliparib: C[C@]1(c2nc3c(C(N)=O)cccc3[nH]2)CCCN1 at 1.4 µM
JZL184: O=C(Oc1ccc([N+](=O)[O-])cc1)N1CCC(C(O)(c2ccc3c(c2)OCO3)c2ccc3c(c2)OCO3)CC1 at 1 µM
OSI-906: C[C@]1(O)C[C@@H](c2nc(-c3ccc4ccc(-c5ccccc5)nc4c3)c3c(N)nccn32)C1 at 0.4 µM
indole-3-carbinol: OCc1c[nH]c2ccccc12 at 0.8 µM
bortezomib: CC(C)C[C@H](NC(=O)[C@H](Cc1ccccc1)NC(=O)c1cnccn1)B(O)O at 0.001 µM
NVP-TAE684: COc1cc(N2CCC(N3CCN(C)CC3)CC2)ccc1Nc1ncc(Cl)c(Nc2ccccc2S(=O)(=O)C(C)C)n1 at 0.08 µM
tanespimycin: C=CCNC1=C2C[C@@H](C)C[C@H](OC)[C@H](O)[C@@H](C)/C=C(\C)[C@H](OC(N)=O)[C@@H](OC)/C=C\C=C(/C)C(=O)NC(=CC1=O)C2=O at 0.002 µM
tozasertib: Cc1cc(Nc2cc(N3CCN(C)CC3)nc(Sc3ccc(NC(=O)C4CC4)cc3)n2)n[nH]1 at 0.006 µM
PD173074: CCN(CC)CCCCNc1ncc2cc(-c3cc(OC)cc(OC)c3)c(NC(=O)NC(C)(C)C)nc2n1 at 0.1 µM
CHIR-265: Cn1c(Nc2ccc(C(F)(F)F)cc2)nc2cc(Oc3ccnc(-c4ncc(C(F)(F)F)[nH]4)c3)ccc21 at 0.08 µM
CP-690550: C[C@@H]1CCN(C(=O)CC#N)C[C@@H]1N(C)c1ncnc2[nH]ccc12 at 1 µM
bexarotene: C=C(c1ccc(C(=O)O)cc1)c1cc2c(cc1C)C(C)(C)CCC2(C)C at 2 µM
cediranib: COc1cc2c(Oc3ccc4[nH]c(C)cc4c3F)ncnc2cc1OCCCN1CCCC1 at 0.4 µM

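The test systems are human melanoma cell lines, treated with two drugs together for 72 h and then stained and imaged. Each value is the count of nuclei relative to DMSO-treated wells, in %, so that 100 equals the control. Concentrations were fixed for each drug; these are the lower of two levels, a fifth of the higher. The file gives one value for each pair and line, without errors, so small differences may be noise.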 An unselected part of the screen is shown. An entry leaves out what has no value listed here.

With tanespimycin + OSI-906 the screen read IPC-298: 95.0; COLO 792: 98.2; IST-MEL1: 90.6; LOX IMVI: 112; LB2518-MEL: 100. For GW0742 + PF-04217903 the values were IPC-298: 104; COLO 792: 99.8; IST-MEL1: 99.7; 501mel: 102; LOX IMVI: 99.9; LB2518-MEL: 95.4. With indole-3-carbinol + ENMD-2076 the screen read IPC-298: 98.4; COLO 792: 103; IST-MEL1: 98.9; LOX IMVI: 92.9; LB2518-MEL: 87.0. Results for tozasertib + bexarotene are IPC-298: 91.5; COLO 792: 110; IST-MEL1: 86.9; LOX IMVI: 109; LB2518-MEL: 89.3. For tanespimycin + bortezomib the values were IPC-298: 68.4; COLO 792: 89.9; IST-MEL1: 87.8; LOX IMVI: 61.3; LB2518-MEL: 43.1.

With BMS-536924 + PD173074 the screen read IPC-298: 101; COLO 792: 72.5; IST-MEL1: 97.8; 501mel: 80.0; LOX IMVI: 124; LB2518-MEL: 94.8. Results for JZL184 + GW0742 are IPC-298: 108; COLO 792: 111; IST-MEL1: 99.2; 501mel: 77.7; LOX IMVI: 85.3; LB2518-MEL: 122. With cediranib + GW2580 the screen read IPC-298: 102; COLO 792: 86.5; IST-MEL1: 116; 501mel: 93.9; LOX IMVI: 134; LB2518-MEL: 111. Results for GW2580 + ENMD-2076 are IPC-298: 97.8; COLO 792: 93.3; IST-MEL1: 100; 501mel: 60.6; LOX IMVI: 79.7; LB2518-MEL: 86.6. With NVP-TAE684 + CHIR-265 the screen read IPC-298: 58.1; COLO 792: 44.7; IST-MEL1: 92.9; 501mel: 66.8; LOX IMVI: 79.8; LB2518-MEL: 61.0.

With GW2580 + OSU-03012 the screen read IPC-298: 84.7; COLO 792: 106; IST-MEL1: 94.4; LOX IMVI: 93.2; LB2518-MEL: 108. veliparib + bexarotene gave IPC-298: 91.9; COLO 792: 86.2; IST-MEL1: 92.4; LOX IMVI: 108; LB2518-MEL: 97.4. NVP-TAE684 + OSU-03012 gave IPC-298: 79.5; COLO 792: 89.0; IST-MEL1: 92.0; LOX IMVI: 104. With dorsomorphin + CP-690550 the screen read IPC-298: 103; COLO 792: 105; IST-MEL1: 97.3; 501mel: 109; LOX IMVI: 118; LB2518-MEL: 95.0. With NVP-TAE684 + cediranib the screen read IPC-298: 98.1; COLO 792: 92.2; IST-MEL1: 109; 501mel: 87.8; LOX IMVI: 102; LB2518-MEL: 101.

NVP-TAE684 + veliparib gave IPC-298: 101; COLO 792: 94.9; IST-MEL1: 98.2; 501mel: 95.4; LOX IMVI: 67.8; LB2518-MEL: 109. With dorsomorphin + BMS-536924 the screen read IPC-298: 83.5; COLO 792: 96.5; IST-MEL1: 94.7; 501mel: 65.0; LOX IMVI: 108; LB2518-MEL: 110. tozasertib + JZL184 gave IPC-298: 98.3; COLO 792: 95.2; IST-MEL1: 99.5; 501mel: 89.8; LOX IMVI: 102; LB2518-MEL: 91.3.

Once more, the final 2:

Combination	IPC-298	COLO 792	IST-MEL1	501mel	LOX IMVI	LB2518-MEL
dorsomorphin + BMS-536924	83.5	96.5	94.7	65.0	108	110
tozasertib + JZL184	98.3	95.2	99.5	89.8	102	91.3

Source: doi:10.1371/journal.pone.0140310, primary screening data, rounded.